Measurements: the supplement of paper PMC11006884
The targets with a hit were mostly taken out for another list; the other results follow. The data scatter; read single values as rough. Only a part is listed here, and it is no random draw.

The chains behind the UniProt entries cited, without tags or fusion partners. Where a name states a change or a piece, a line headed by the entry shows the natural chain unless it says otherwise.
UniProt Q86WR0: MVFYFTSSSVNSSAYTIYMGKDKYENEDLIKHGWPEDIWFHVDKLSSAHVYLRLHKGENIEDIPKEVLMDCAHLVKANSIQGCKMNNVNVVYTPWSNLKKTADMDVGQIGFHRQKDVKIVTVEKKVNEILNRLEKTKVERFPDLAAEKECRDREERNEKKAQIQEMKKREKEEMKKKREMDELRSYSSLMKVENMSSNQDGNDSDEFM
UniProt Q7Z7L1: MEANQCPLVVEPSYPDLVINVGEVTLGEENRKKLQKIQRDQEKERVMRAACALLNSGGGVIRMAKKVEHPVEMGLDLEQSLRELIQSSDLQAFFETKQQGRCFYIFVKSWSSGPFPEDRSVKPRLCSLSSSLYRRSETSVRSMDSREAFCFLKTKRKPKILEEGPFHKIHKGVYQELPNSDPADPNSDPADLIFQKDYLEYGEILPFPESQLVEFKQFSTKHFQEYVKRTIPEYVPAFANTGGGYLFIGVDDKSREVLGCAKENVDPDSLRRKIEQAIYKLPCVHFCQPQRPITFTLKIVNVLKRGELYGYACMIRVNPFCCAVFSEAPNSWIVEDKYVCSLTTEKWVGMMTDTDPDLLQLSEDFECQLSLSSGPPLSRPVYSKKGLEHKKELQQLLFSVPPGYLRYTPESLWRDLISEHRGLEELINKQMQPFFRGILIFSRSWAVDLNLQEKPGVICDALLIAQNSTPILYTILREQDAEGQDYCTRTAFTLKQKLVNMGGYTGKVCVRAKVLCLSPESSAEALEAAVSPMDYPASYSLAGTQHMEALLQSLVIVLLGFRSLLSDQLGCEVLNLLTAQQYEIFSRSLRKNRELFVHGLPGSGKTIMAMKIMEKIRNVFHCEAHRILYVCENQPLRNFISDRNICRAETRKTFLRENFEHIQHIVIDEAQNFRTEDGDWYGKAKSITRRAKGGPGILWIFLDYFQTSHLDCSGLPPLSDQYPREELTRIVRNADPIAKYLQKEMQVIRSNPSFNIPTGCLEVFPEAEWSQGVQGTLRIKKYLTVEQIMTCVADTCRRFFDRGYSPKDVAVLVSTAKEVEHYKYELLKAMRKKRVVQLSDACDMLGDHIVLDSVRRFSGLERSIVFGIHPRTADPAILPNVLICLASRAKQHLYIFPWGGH
UniProt Q86WQ0: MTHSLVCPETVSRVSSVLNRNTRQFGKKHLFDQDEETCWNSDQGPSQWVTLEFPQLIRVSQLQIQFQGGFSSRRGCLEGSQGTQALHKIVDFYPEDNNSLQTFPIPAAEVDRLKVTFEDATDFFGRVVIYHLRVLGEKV
UniProt Q8IV48: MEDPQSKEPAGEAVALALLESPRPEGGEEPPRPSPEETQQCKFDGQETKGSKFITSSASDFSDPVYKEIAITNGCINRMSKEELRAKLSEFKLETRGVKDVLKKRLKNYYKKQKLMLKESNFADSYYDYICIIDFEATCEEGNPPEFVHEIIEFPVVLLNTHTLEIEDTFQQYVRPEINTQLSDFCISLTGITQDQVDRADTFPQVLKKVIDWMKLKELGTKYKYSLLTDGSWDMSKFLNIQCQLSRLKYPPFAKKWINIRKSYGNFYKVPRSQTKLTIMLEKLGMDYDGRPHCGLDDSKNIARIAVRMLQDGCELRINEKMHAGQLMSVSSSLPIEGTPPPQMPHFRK
UniProt Q86TU7: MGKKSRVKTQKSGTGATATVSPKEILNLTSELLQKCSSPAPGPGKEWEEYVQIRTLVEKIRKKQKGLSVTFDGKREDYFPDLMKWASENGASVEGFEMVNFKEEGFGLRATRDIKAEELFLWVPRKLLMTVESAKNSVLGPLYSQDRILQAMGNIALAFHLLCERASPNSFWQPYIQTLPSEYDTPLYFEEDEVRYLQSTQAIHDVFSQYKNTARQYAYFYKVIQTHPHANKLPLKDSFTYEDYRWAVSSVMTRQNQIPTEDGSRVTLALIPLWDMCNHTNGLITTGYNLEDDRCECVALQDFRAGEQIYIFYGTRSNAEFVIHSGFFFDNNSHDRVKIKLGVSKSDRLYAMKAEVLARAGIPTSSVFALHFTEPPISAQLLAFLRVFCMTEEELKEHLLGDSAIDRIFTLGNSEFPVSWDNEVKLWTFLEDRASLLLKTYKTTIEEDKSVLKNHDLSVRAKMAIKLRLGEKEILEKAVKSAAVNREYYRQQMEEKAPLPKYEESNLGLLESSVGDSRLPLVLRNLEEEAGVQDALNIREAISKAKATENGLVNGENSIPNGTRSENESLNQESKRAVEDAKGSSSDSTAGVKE
UniProt Q8IYB7: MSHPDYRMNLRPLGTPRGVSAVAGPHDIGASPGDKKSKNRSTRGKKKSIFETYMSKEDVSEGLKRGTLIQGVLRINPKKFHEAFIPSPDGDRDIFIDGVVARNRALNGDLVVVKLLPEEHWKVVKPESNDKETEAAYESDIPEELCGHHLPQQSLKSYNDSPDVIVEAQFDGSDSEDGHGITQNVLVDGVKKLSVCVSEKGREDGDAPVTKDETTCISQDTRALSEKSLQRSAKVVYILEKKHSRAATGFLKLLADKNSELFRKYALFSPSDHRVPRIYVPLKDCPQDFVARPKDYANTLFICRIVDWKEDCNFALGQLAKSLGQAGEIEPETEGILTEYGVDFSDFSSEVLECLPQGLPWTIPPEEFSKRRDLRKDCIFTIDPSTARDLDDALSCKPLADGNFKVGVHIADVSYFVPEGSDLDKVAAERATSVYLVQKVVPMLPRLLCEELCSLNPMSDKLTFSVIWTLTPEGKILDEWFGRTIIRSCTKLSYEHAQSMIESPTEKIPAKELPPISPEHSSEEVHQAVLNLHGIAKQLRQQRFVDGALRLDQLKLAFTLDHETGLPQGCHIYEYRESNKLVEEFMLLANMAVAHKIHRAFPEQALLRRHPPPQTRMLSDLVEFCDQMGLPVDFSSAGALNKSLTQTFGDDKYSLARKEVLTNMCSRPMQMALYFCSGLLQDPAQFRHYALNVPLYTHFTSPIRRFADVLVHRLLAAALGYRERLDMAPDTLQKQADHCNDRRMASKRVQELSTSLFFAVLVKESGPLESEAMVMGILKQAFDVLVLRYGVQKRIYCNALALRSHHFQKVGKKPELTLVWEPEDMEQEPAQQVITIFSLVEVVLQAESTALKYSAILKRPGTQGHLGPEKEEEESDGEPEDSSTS
UniProt Q86Y56: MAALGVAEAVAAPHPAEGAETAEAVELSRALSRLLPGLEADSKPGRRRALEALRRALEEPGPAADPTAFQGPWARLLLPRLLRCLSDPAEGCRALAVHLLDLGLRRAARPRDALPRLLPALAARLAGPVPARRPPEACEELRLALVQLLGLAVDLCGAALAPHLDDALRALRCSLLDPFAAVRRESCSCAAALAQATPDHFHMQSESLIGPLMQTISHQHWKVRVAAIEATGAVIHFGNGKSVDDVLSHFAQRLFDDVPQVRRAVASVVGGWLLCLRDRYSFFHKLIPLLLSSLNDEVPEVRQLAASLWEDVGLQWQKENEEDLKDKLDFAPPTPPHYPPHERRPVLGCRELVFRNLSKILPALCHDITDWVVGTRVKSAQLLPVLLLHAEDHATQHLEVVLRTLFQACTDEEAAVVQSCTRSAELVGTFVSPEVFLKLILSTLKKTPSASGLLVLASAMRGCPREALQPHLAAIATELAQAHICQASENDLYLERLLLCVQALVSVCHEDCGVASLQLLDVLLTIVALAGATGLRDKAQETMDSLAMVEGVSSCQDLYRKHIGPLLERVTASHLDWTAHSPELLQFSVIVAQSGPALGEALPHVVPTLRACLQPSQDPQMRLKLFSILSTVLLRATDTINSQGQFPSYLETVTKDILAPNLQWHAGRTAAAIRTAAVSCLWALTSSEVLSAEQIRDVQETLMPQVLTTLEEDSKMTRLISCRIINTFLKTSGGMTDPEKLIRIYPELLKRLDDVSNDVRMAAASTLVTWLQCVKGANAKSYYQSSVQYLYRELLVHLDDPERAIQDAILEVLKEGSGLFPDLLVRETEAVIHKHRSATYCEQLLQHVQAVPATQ
UniProt Q86UW7: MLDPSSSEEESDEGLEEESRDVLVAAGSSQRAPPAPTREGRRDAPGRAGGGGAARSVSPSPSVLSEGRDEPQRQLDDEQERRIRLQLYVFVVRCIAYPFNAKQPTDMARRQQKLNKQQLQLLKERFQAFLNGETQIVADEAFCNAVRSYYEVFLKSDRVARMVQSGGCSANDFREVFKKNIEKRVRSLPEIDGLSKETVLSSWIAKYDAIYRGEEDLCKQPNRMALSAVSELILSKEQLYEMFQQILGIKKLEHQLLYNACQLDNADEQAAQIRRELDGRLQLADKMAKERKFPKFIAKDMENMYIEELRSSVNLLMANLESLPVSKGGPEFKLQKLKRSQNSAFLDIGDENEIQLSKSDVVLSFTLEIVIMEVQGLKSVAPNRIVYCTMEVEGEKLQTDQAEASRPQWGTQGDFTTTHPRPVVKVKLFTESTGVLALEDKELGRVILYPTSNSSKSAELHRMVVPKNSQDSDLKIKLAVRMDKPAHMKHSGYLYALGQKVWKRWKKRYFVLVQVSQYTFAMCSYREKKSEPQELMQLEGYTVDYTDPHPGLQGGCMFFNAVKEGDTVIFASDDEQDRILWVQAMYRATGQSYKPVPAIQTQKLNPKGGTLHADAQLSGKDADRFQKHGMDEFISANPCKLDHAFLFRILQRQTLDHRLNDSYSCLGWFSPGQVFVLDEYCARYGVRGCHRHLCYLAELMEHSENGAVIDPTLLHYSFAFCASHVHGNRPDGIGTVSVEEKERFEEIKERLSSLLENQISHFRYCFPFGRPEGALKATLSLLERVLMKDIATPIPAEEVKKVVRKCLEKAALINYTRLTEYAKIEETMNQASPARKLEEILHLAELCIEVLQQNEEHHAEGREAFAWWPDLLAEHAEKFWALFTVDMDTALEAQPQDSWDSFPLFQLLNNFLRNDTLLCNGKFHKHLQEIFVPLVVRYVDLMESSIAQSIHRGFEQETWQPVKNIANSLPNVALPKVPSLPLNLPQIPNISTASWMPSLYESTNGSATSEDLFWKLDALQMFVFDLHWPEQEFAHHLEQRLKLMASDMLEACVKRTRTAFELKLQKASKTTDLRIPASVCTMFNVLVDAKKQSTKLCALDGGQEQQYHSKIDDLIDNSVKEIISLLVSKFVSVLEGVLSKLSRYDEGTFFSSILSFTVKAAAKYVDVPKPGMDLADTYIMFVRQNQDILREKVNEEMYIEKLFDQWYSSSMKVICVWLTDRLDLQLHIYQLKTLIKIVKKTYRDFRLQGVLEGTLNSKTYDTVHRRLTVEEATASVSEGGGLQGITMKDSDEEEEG
UniProt Q7Z5L9: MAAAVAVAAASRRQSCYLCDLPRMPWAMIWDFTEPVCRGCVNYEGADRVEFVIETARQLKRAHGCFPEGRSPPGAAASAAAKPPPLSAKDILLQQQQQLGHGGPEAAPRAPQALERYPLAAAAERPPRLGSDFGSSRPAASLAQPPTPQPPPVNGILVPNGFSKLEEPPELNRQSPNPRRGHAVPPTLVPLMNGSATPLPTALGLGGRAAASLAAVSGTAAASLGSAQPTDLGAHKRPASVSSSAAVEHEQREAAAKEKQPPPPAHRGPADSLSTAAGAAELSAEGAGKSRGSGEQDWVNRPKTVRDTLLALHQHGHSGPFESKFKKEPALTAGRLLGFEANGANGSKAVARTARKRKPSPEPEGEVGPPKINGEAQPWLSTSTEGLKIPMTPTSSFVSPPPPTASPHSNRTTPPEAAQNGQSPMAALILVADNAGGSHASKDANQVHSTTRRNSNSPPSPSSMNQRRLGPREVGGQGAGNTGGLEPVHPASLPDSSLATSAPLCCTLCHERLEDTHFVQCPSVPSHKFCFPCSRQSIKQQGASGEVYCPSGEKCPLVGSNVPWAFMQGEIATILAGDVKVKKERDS
UniProt Q7Z2T5: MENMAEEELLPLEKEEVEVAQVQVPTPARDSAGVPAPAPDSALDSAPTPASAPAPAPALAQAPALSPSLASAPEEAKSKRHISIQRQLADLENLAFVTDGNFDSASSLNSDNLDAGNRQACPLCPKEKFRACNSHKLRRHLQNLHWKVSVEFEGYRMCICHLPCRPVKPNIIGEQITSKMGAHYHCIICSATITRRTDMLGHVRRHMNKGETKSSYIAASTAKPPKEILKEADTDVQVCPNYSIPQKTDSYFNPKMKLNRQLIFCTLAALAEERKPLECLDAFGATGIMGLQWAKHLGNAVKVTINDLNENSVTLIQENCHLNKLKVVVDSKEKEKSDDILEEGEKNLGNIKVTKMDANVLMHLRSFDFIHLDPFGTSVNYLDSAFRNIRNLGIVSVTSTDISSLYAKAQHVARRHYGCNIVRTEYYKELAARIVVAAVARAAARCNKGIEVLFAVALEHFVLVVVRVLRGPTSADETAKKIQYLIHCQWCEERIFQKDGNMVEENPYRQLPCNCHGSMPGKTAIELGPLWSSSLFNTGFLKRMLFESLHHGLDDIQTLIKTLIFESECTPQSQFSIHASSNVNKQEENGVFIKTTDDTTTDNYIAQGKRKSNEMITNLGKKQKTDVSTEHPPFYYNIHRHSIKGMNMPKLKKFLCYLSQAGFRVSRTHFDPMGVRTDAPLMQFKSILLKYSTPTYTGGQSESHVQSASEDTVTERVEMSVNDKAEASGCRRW

compound: COC(=O)/C=C/c1ccccc1 [methyl cinnamate]; assay: log2 ratio of iodoacetamide-alkyne labeling of the cysteine site, DMSO over compound (competition); higher = stronger covalent engagement of the cysteine by the compound, active = 1 or more; conditions: 500 µM; treatment time 1 h; system: HEK293T cell lysate
Outline: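 HEK293T lysate at 2 mg/mL was treated with vehicle or electrophile (500 µM) for 1 h at ambient temperature, then labelled with iodoacetamide alkyne (1 h), clicked to sCIP-TMT reagents, pooled, digested with trypsin overnight at 37 °C, enriched on streptavidin and eluted with acid. Peptides were analysed by Orbitrap Eclipse LC-MS/MS with FAIMS and quantified in FragPipe, using duplicate channels and three replicates, with cysteines quantified in only one replicate excluded. The log2 competition ratio for each cysteine is the mean control-channel reporter intensity divided by the mean compound-channel reporter intensity.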

log2 ratio of iodoacetamide-alkyne labeling, inactive:
PHF6 C280 (UniProt Q8IWS0) -0.178
UniProt Q7Z4H7_C885 0.134
DHX29 C1025 (UniProt Q7Z478) 0.171
DHX40 C42 (UniProt Q8IX18) 0.339
CCDC25 C83 (UniProt Q86WR0) 0.248
SLFN11 C760 (UniProt Q7Z7L1) 0.123
SLFN11 C884 (UniProt Q7Z7L1) -0.251
DCP2 C158 (UniProt Q8IU60) 0.024
NR2C2AP C7 (UniProt Q86WQ0) 0.159
UniProt Q7LBC6_C1212 0.164
HUWE1 C3259 (UniProt Q7Z6Z7) 0.57
ERI1 C75 (UniProt Q8IV48) 0.263
SETD3 C36 (UniProt Q86TU7) 0.224
DIS3L2 C216 (UniProt Q8IYB7) 0.411
UniProt Q86Y56_C349 0.134
UniProt Q86UW7_C639 0.0758
IRF2BP2 C16 (UniProt Q7Z5L9) 0.12
UniProt Q7Z2T5_C730 0.335
UniProt Q7Z2T5_C265 0.168
KIF21A C299 (UniProt Q7Z4S6) 0.0727
KANSL1 C1020 (UniProt Q7Z3B3) 0.12
UniProt Q7Z2T5_C239 0.338
ANKLE2 C350 (UniProt Q86XL3) -0.0885

Taken from above (four entries):
log2 ratio of iodoacetamide-alkyne labeling, inactive:
PHF6 C280 (UniProt Q8IWS0) -0.178
UniProt Q7Z4H7_C885 0.134
DHX29 C1025 (UniProt Q7Z478) 0.171
DHX40 C42 (UniProt Q8IX18) 0.339
